In PMC4455246:
No constants are given. Whether binding was seen depends on the method and setting. In cells and extracts the contact can be indirect. Some entries that bind do so weakly or less than the wild type.

Chains of the proteins cited; added tags and fusions are not shown. Residues count along the entry.
UniProt P26819, residues 1-175: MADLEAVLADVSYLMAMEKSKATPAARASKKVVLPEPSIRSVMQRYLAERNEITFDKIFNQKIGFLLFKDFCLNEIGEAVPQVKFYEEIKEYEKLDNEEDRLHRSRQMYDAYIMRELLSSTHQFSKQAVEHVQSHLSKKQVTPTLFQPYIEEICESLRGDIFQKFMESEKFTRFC

Target: isolated C-terminally myc-tagged RGS homology (RH) domain of GRK3 (N-terminal amino acids 1-175) (rat) (UniProt P26819)
Assay: co-IP; lysates of lesioned rat striata infected with RH-myc lentivirus, NP-40-containing IP buffer; mouse anti-myc antibody on agarose beads, overnight at 4 °C, 3 washes; blots with rabbit anti-Gq/11 and rabbit anti-myc; uninfected intact striata as no-bait control

B1: endogenous Gαq (protein, UniProt P82471 1-359)
chain: MTLESIMACCLSEEAKEARRINDEIERQLRRDKRDARRELKLLLLGTGESGKSTFIKQMRIIHGSGYSDEDKRGFTKLVYQNIFTAMQAMVRAMDTLKIPYKYEHNKAHAQLVREVDVEKVSAFENPYVDAIKSLWNDPGIQECYDRRREYQLSDSTKYYLNDLDRVADPSYLPTQQDVLRVRVPTTGIIEYPFDLQSVIFRMVDVGGQRSERRKWIHCFENVTSIMFLVALSEYDQVLVESDNENRMEESKALFRTIITYPWFQNSSVILFLNKKDLLEEKIMYSHLVDYFPEYDGPQRDAQAAREFILKMFVDLNPDSDKIIYSHFTCATDTENIRFVFAAVKDTILQLNLKEYNLV
binding: binds
